# Taken from: PubChem BioAssay AID652243 (Drosophila RNAi Screening Center, 2013)
# Assay: 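Fly regulators of androgen-dependent reporter output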 (primary screen)
# Cell system: Drosophila S2R+ cells
# Reagent: long dsRNA against Drosophila genes
# Duration: 72 h (48 h, then 24 h hormone)
# Treatment: synthetic androgen R1881 at 10 nM for 24 h
# Detection: 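Firefly light from an androgen-responsive reporter and Renilla control light per well, raw and unnormalised, for each of two replicates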
# Scale: firefly reporter light: higher = more light from androgen-responsive reporter; Renilla control light: higher = more constitutive control signal (cell number, transfection)
# Active means: 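Across duplicate plates, a knock-down whose log firefly/Renilla ratio shifted a set fold down or up from the GFP/LacZ control mean was a hit; the downward cut appears as both 1.5 and 3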
# Meaning of the calls: active = hit: reporter lowered or raised; inactive = no hit
# The deposit covers about 24,000 reagents; shown is a random part of those that have a named target and a result. Of all reagents, 246 (1%) got an active call. 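Plates not normalised; calls are printed but the firefly/Renilla ratio behind them is not deposited; fold cut for lowering reported inconsistently.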 Raw values vary from plate to plate and are shown uncorrected. Unmarked entries are inactive. The numbers tell different reagents against one gene apart. Not stated in the record: the amount of reagent.
target,reagent no.,"firefly reporter light, replicate 1","firefly reporter light, replicate 2","Renilla control light, replicate 1","Renilla control light, replicate 2"
Cyp6a21 (GeneID 36665),1,1.55e5,1.64e5,2.97e6,2.97e6
TAF1B (GeneID 41242),1,50469,1.02e5,5.16e5,7.83e5
ZnT33D (GeneID 326167),1,1.52e5,1.99e5,1.14e6,1.45e6
CG5681 (GeneID 35074),1,2.94e5,3.29e5,2.84e6,3.30e6
CG5681 (GeneID 35074),2,6.42e5,9.48e5,9.06e5,9.76e5
RpS2 (GeneID 34309),1,8.06e5,5.10e5,1.46e6,1.09e6
RpS2 (GeneID 34309),2,1.88e5,2.20e5,7.04e5,5.59e5
CG12643 (GeneID 50416),1,3.81e5,4.36e5,3.77e6,3.54e6
CG12643 (GeneID 50416),2,7.76e5,8.20e5,1.21e6,1.16e6
CG12025 (GeneID 38246),1,86933,68948,1.07e6,1.10e6
CG7342 (GeneID 42335),1,61018,86413,8.17e5,1.02e6
Sgs4 (GeneID 31304),1,4.37e5,4.53e5,3.55e6,2.85e6
Sgs4 (GeneID 31304),2,6.60e5,3.10e5,1.22e6,6.14e5
Adsl (GeneID 42051),1,57570,1.10e5,4.99e5,7.86e5
Lrpprc2 (GeneID 31095),1,76544,60491,7.98e5,4.67e5
Lrpprc2 (GeneID 31095),2,7.13e5,6.77e5,1.22e6,1.38e6
Rbf2 (GeneID 41941),1,1.67e5,1.74e5,2.74e6,2.93e6
Usp12-46 (GeneID 42702),1,1.60e5,1.44e5,2.38e6,2.10e6
hd (GeneID 40642),1,80553,1.20e5,1.86e6,1.63e6
hd (GeneID 40642),2,3.91e5,3.19e5,7.70e5,5.60e5
udt (GeneID 42809),1,1.42e5,1.42e5,2.05e6,2.00e6
sosie (GeneID 42961),1,2.85e5,2.32e5,3.03e6,2.84e6
sosie (GeneID 42961),2,6.72e5,6.30e5,2.40e6,2.16e6
sosie (GeneID 42961),3,5.74e5,3.98e5,7.21e5,3.14e5
snu (GeneID 43391),1,1.39e5,1.49e5,1.51e6,1.16e6
CG15073 (GeneID 37155),1,1.27e5,1.41e5,2.24e6,1.74e6
CG15073 (GeneID 37155),2,4.57e5,3.35e5,6.27e5,3.80e5
Elys (GeneID 32971),1,46088,29496,2.96e5,3.05e5
mRpS18B (GeneID 35299),1,9.31e5,8.65e5,1.86e6,1.93e6
CG1622 (GeneID 32282),1,1.26e5,1.26e5,7.59e5,8.06e5
CG1622 (GeneID 32282),2,2.45e5,6.12e5,1.04e6,1.68e6
Gfat1 (GeneID 3354921),1,1.19e5,98325,4.11e5,3.69e5
Gfat1 (GeneID 3354921),2,2.88e5,4.33e5,9.13e5,9.13e5
CG32374 (GeneID 38848),1,2.78e5,1.95e5,2.11e6,2.44e6
CG18538 (GeneID 37095),1,2.44e5,4.51e5,2.08e6,2.08e6
PIG-A (GeneID 37020),1,1.37e6,7.30e5,2.31e6,1.35e6
Snoo (GeneID 5740414),1,8.07e5,8.19e5,1.67e6,1.73e6
Snoo (GeneID 5740414),2,2.36e5,2.05e5,1.70e6,1.53e6
CG15124 (GeneID 37256),1,57637,1.07e5,8.86e5,1.45e6
Calr (GeneID 41166),1,1.60e5,1.14e5,2.71e6,2.54e6
Calr (GeneID 41166),2,4.07e5,2.34e5,1.00e6,7.27e5
Nedd8 (GeneID 35151),1,1.67e5,1.46e5,1.77e6,1.22e6

Part of the list above, reformatted:
mRpS18B (GeneID 35299)
- firefly reporter light, replicate 1: 9.31e5
- firefly reporter light, replicate 2: 8.65e5
- Renilla control light, replicate 1: 1.86e6
- Renilla control light, replicate 2: 1.93e6

CG1622 (GeneID 32282) #1
- firefly reporter light, replicate 1: 1.26e5
- firefly reporter light, replicate 2: 1.26e5
- Renilla control light, replicate 1: 7.59e5
- Renilla control light, replicate 2: 8.06e5

CG1622 (GeneID 32282) #2
- firefly reporter light, replicate 1: 2.45e5
- firefly reporter light, replicate 2: 6.12e5
- Renilla control light, replicate 1: 1.04e6
- Renilla control light, replicate 2: 1.68e6

Gfat1 (GeneID 3354921) #1
- firefly reporter light, replicate 1: 1.19e5
- firefly reporter light, replicate 2: 98325
- Renilla control light, replicate 1: 4.11e5
- Renilla control light, replicate 2: 3.69e5

Gfat1 (GeneID 3354921) #2
- firefly reporter light, replicate 1: 2.88e5
- firefly reporter light, replicate 2: 4.33e5
- Renilla control light, replicate 1: 9.13e5
- Renilla control light, replicate 2: 9.13e5

CG32374 (GeneID 38848)
- firefly reporter light, replicate 1: 2.78e5
- firefly reporter light, replicate 2: 1.95e5
- Renilla control light, replicate 1: 2.11e6
- Renilla control light, replicate 2: 2.44e6

CG18538 (GeneID 37095)
- firefly reporter light, replicate 1: 2.44e5
- firefly reporter light, replicate 2: 4.51e5
- Renilla control light, replicate 1: 2.08e6
- Renilla control light, replicate 2: 2.08e6

Further results follow:
target,reagent no.,"firefly reporter light, replicate 1","firefly reporter light, replicate 2","Renilla control light, replicate 1","Renilla control light, replicate 2"
tsr (GeneID 37841),1,5.38e5,6.49e5,2.61e6,3.55e6
shams (GeneID 43008),1,1.78e5,1.55e5,1.80e6,2.06e6
MCPH1 (GeneID 36272),1,1.51e6,1.28e6,2.72e6,2.23e6
MCPH1 (GeneID 36272),2,4.09e5,2.52e5,2.20e6,1.49e6
MCPH1 (GeneID 36272),3,6.79e5,8.35e5,3.62e5,4.36e5
MCPH1 (GeneID 36272),4,4.73e5,7.97e5,1.23e6,1.73e6
TyrRS (GeneID 39829),1,47614,46516,4.52e5,3.32e5
TyrRS (GeneID 39829),2,1.96e5,2.65e5,6.44e5,5.97e5
Rchy1 (GeneID 33901),1,6.59e5,7.84e5,8.00e5,1.14e6
Rchy1 (GeneID 33901),2,3.63e5,4.29e5,1.21e6,8.82e5
Tmtc4 (GeneID 41867),1,1.44e5,1.90e5,2.19e6,2.62e6
CG13954 (GeneID 35959),1,2.65e5,1.56e5,1.55e6,9.18e5
CG13954 (GeneID 35959),2,3.46e5,2.97e5,4.45e5,3.73e5
CheA87a (GeneID 41642),1,2.54e5,1.77e5,1.59e6,2.22e6
Nost (GeneID 8673992),1,4.47e5,6.27e5,1.88e6,1.97e6
Nost (GeneID 8673992),2,4.33e5,3.08e5,3.73e6,3.13e6
Nost (GeneID 8673992),3,4.96e5,3.42e5,8.76e5,8.12e5
Nost (GeneID 8673992),4,1.08e6,6.83e5,2.40e6,1.52e6
obst-E (GeneID 33806),1,6.03e5,8.43e5,1.32e6,1.24e6
obst-E (GeneID 33806),2,6.09e5,7.01e5,9.29e5,1.04e6
CG32037 (GeneID 326183),1,2.80e5,2.56e5,3.46e6,2.52e6
Trm7-32 (GeneID 42056),1,62487,1.47e5,6.20e5,7.22e5
pan (GeneID 43769),1,51597,47759,4.89e5,4.18e5
pan (GeneID 43769),2,1.13e6,8.29e5,1.99e6,1.60e6
pan (GeneID 43769),3,7.85e5,7.59e5,1.44e6,1.38e6
CG12945 (GeneID 41204),1,1.94e5,2.07e5,2.67e6,3.23e6
nenya (GeneID 318572),1,68191,88440,2.58e5,2.12e5
CheB38c (GeneID 35346),1,2.26e5,2.36e5,1.67e6,2.29e6
CG42686 (retired record) (GeneID 42674),1,1.59e5,2.54e5,2.89e6,3.44e6
CG42686 (retired record) (GeneID 42674),2,7.43e5,7.11e5,9.73e5,1.65e6
CG42686 (retired record) (GeneID 42674),3,2.55e5,2.70e5,9.80e5,7.95e5
CG42686 (retired record) (GeneID 42674),4,7.00e5,5.98e5,1.27e6,1.27e6
